# Values from PubChem BioAssay AID1224829 (NIAID, 2016).
# Assay: 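Secondary check of hits that alter LPS-induced p65 translocation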 (follow-up of hits)
# System: mouse RAW264.7 G9 macrophage reporter cells
# Reagent: single siRNA against mouse genes, 100 nM
# Time to read-out: 2 days of siRNA knock-down, then 40 min of LPS before fixing
# Treatment: LPS (Salmonella minnesota R595) at 10 ng/ml
# Detection: 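Imaging of GFP-p65 after 40 min of LPS; nuclear over perinuclear ring intensity ratio, scaled to plate median and non-targeting control wells, given as z-score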
# Scale: p65 translocation z-score and gene median z-score, per vendor: higher = more nuclear NF-kappaB p65 after LPS
# Hit rule: 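An siRNA is called active when the mean z-score of its two replicates is above 2 or below -2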
# Calls: active = changed p65 translocation (either direction); inactive = no clear change
# This is a random part of about 3,800 reagents. 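Calls cover raised and lowered translocation; gene median uses one vendor's three siRNAs; qiagen siRNAs acted more weakly than ambion siRNAs.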 Reagents against one gene are numbered here. Reagent sequences are not shown.
target gene,reagent,siRNA vendor or control pool,"p65 translocation z-score, replicate mean","p65 translocation z-score, replicate 1","p65 translocation z-score, replicate 2","gene median z-score, per vendor",call
Chchd2 (GeneID 14004),1,ambion single siRNA,-1.39,-0.994,-1.78,-0.546,inactive
Chchd2 (GeneID 14004),2,ambion single siRNA,-0.708,-0.0983,-1.32,-0.546,inactive
Chchd2 (GeneID 14004),3,ambion single siRNA,0.511,0.123,0.898,-0.546,inactive
Chchd2 (GeneID 14004),4,qiagen single siRNA,1.87,1.14,2.59,1.25,inactive
Chchd2 (GeneID 14004),5,qiagen single siRNA,1.98,1.35,2.61,1.25,inactive
Chchd2 (GeneID 14004),6,qiagen single siRNA,-4.32,-3.52,-5.13,1.25,active
Slco2b1 (GeneID 101488),1,ambion single siRNA,3.11,4.7,1.51,0.0698,active
Slco2b1 (GeneID 101488),2,ambion single siRNA,-0.853,-1.43,-0.279,0.0698,inactive
Slco2b1 (GeneID 101488),3,ambion single siRNA,-1.38,-3.17,0.418,0.0698,inactive
Slco2b1 (GeneID 101488),4,qiagen single siRNA,1.73,1.63,1.83,1.15,inactive
Slco2b1 (GeneID 101488),5,qiagen single siRNA,1.5,0.67,2.32,1.15,inactive
Slco2b1 (GeneID 101488),6,qiagen single siRNA,-3.91,-3.98,-3.83,1.15,active
Ankmy2 (GeneID 217473),1,ambion single siRNA,-1.96,-2.28,-1.64,-3.68,inactive
Ankmy2 (GeneID 217473),2,ambion single siRNA,-4.78,-4.99,-4.57,-3.68,active
Ankmy2 (GeneID 217473),3,ambion single siRNA,-3.68,-3.68,,-3.68,active
Ankmy2 (GeneID 217473),4,qiagen single siRNA,1.85,0.926,2.77,1.47,inactive
Ankmy2 (GeneID 217473),5,qiagen single siRNA,2.75,2,3.5,1.47,active
Ankmy2 (GeneID 217473),6,qiagen single siRNA,-2.48,-2.32,-2.64,1.47,active
Slc25a4 (GeneID 11739),1,qiagen single siRNA,1.29,1.68,0.892,1.42,inactive
Slc25a4 (GeneID 11739),2,qiagen single siRNA,1.32,1.19,1.44,1.42,inactive
Slc25a4 (GeneID 11739),3,qiagen single siRNA,1.92,2.44,1.41,1.42,inactive
Sh2d1a (GeneID 20400),1,ambion single siRNA,0.735,1.36,0.105,-0.157,inactive
Sh2d1a (GeneID 20400),2,ambion single siRNA,-0.258,-0.521,0.00509,-0.157,inactive
Sh2d1a (GeneID 20400),3,ambion single siRNA,-0.494,-0.319,-0.668,-0.157,inactive
Sh2d1a (GeneID 20400),4,qiagen single siRNA,-0.294,-1.47,0.882,-1.33,inactive
Sh2d1a (GeneID 20400),5,qiagen single siRNA,0.037,1.26,-1.19,-1.33,inactive
Sh2d1a (GeneID 20400),6,qiagen single siRNA,-4.82,-3.32,-6.32,-1.33,active

4 neighbouring reagents from above:
target gene,reagent,siRNA vendor or control pool,"p65 translocation z-score, replicate mean","p65 translocation z-score, replicate 1","p65 translocation z-score, replicate 2","gene median z-score, per vendor",call
Ankmy2 (GeneID 217473),3,ambion single siRNA,-3.68,-3.68,,-3.68,active
Ankmy2 (GeneID 217473),4,qiagen single siRNA,1.85,0.926,2.77,1.47,inactive
Ankmy2 (GeneID 217473),5,qiagen single siRNA,2.75,2,3.5,1.47,active
Ankmy2 (GeneID 217473),6,qiagen single siRNA,-2.48,-2.32,-2.64,1.47,active

More records follow.
target gene,reagent,siRNA vendor or control pool,"p65 translocation z-score, replicate mean","p65 translocation z-score, replicate 1","p65 translocation z-score, replicate 2","gene median z-score, per vendor",call
Pura (GeneID 19290),1,ambion single siRNA,-6.38,-7.51,-5.24,-4.52,active
Pura (GeneID 19290),2,ambion single siRNA,-4.65,-5.5,-3.8,-4.52,active
Pura (GeneID 19290),3,ambion single siRNA,-1.9,-2.41,-1.4,-4.52,inactive
Pura (GeneID 19290),4,qiagen single siRNA,-0.165,0.291,-0.62,-0.844,inactive
Pura (GeneID 19290),5,qiagen single siRNA,0.0735,-1.07,1.22,-0.844,inactive
Pura (GeneID 19290),6,qiagen single siRNA,-3.37,-3.84,-2.91,-0.844,active
Mrps5 (GeneID 77721),1,ambion single siRNA,-0.962,-0.962,,-0.962,inactive
Mrps5 (GeneID 77721),2,ambion single siRNA,-0.0342,0.737,-0.805,-0.962,inactive
Mrps5 (GeneID 77721),3,ambion single siRNA,-1.79,-1.49,-2.1,-0.962,inactive
Mrps5 (GeneID 77721),4,qiagen single siRNA,4.42,2.04,6.79,0.0789,active
Mrps5 (GeneID 77721),5,qiagen single siRNA,0.00717,1.55,-1.54,0.0789,inactive
Mrps5 (GeneID 77721),6,qiagen single siRNA,-1.43,-1.47,-1.39,0.0789,inactive
Fas (GeneID 14102),1,ambion single siRNA,-2.66,-2.16,-3.16,-2.43,active
Fas (GeneID 14102),2,ambion single siRNA,-0.446,-0.433,-0.459,-2.43,inactive
Fas (GeneID 14102),3,ambion single siRNA,-2.99,-2.69,-3.29,-2.43,active
Fas (GeneID 14102),4,qiagen single siRNA,1.52,0.999,2.04,0.683,inactive
Fas (GeneID 14102),5,qiagen single siRNA,1.16,0.366,1.95,0.683,inactive
Fas (GeneID 14102),6,qiagen single siRNA,-2.53,-1.7,-3.37,0.683,active
Arrdc4 (GeneID 66412),1,ambion single siRNA,2.2,2.64,1.76,-1.35,active
Arrdc4 (GeneID 66412),2,ambion single siRNA,-1.35,-1.34,-1.36,-1.35,inactive
Arrdc4 (GeneID 66412),3,ambion single siRNA,-2.48,-1.38,-3.58,-1.35,active
Arrdc4 (GeneID 66412),4,qiagen single siRNA,1.2,0.578,1.83,-0.436,inactive
Arrdc4 (GeneID 66412),5,qiagen single siRNA,-2.15,-2.3,-2,-0.436,active
Arrdc4 (GeneID 66412),6,qiagen single siRNA,-0.436,-0.576,-0.295,-0.436,inactive
9230109A22Rik (GeneID 223413),1,ambion single siRNA,-0.67,-1.13,-0.21,-0.426,inactive
9230109A22Rik (GeneID 223413),2,ambion single siRNA,-0.0288,-0.641,0.583,-0.426,inactive
9230109A22Rik (GeneID 223413),3,ambion single siRNA,0.152,1.19,-0.889,-0.426,inactive
9230109A22Rik (GeneID 223413),4,qiagen single siRNA,-0.338,-0.402,-0.273,0.853,inactive
9230109A22Rik (GeneID 223413),5,qiagen single siRNA,2.04,0.906,3.17,0.853,active
9230109A22Rik (GeneID 223413),6,qiagen single siRNA,1.25,1.7,0.8,0.853,inactive
G6pd2 (GeneID 14380),1,ambion single siRNA,-3.74,-2.72,-4.77,-3.74,active
G6pd2 (GeneID 14380),2,ambion single siRNA,-1.3,-1.36,-1.24,-3.74,inactive
G6pd2 (GeneID 14380),3,ambion single siRNA,-6.72,-6.98,-6.47,-3.74,active
G6pd2 (GeneID 14380),4,qiagen single siRNA,2.07,1.26,2.87,1.9,active
G6pd2 (GeneID 14380),5,qiagen single siRNA,2.55,1.9,3.19,1.9,active
G6pd2 (GeneID 14380),6,qiagen single siRNA,0.774,0.774,,1.9,inactive
Tpr (GeneID 108989),1,ambion single siRNA,-4.02,-4.56,-3.49,-4.17,active
Tpr (GeneID 108989),2,ambion single siRNA,-5.14,-4.38,-5.9,-4.17,active
Tpr (GeneID 108989),3,ambion single siRNA,-2.98,-3.95,-2,-4.17,active
Tpr (GeneID 108989),4,qiagen single siRNA,1.49,-0.177,3.15,-0.44,inactive
Tpr (GeneID 108989),5,qiagen single siRNA,-0.978,-0.704,-1.25,-0.44,inactive
Tpr (GeneID 108989),6,qiagen single siRNA,-0.178,-1.03,0.679,-0.44,inactive
